Test results published in patent publication US6316405A (Wisconsin Alumni Research Foundation, priority 1999, dated 2001).

Assay: general procedure: peptide synthesis; HMPB resin (C-terminal acids); PAL resin (C-terminal amides); BOP-Cl, BOP, DCC or EDCI/HOBt (solution phase); DIPCDI/HOBt (solid phase); PyAOP
Conditions: All free lysines are TFA salts

Substance: Fmoc-K(2Cl-Cbz)LVIFF/[MeLeu (3-OH)^1, DMcAla^4,6, Lys^7 ]CsA conjugate
- conjugation yield (conjugation step): 65%

Substance: Boc-(D)MeSer(OTBS)-MeLeu-Val-MeLeu-Lys(2Cl-Cbz)-OBn
- step yield (coupling step, run 1): 65%
- step yield (coupling step, run 2): 58%

Substance: PEPTIDE1{[PAc].K.L.V.F.F.[am]}|CHEM1{[FKBP-O(CH2)5CO]}$PEPTIDE1,CHEM1,2:R3-1:R2$$$V2.0
- conjugation yield (conjugation step): 43%

Substance: acetylcyclosporin A
- step yield (late stage modification step): 65%

Substance: Fmoc-EK(2Cl-Cbz)LVFF-NH2 /[MeLeu(3OH)^1, (D)MeAla^4,6, , Lys^7 ]CsA conjugate
- conjugation yield (conjugation step): 37%

Substance: PEPTIDE1{[PAc].[Lys(Alloc)].L.V.F.F.K.[am]}|CHEM1{[FKBP-OCH2CO]}$PEPTIDE1,CHEM1,7:R3-1:R2$$$V2.0
- conjugation yield (conjugation step): 20%

Substance: Boc-MeLeu-Val-MeLeu-Lys(2Cl-Cbz)-OBn
- step yield (coupling step): 69%

Substance: Ac-EK(2Cl-Cbz)LVFF-NH2 /[MeLeu(3-OH)^1, (D)MeAla^4,6, Lys^7 ]CsA conjugate
- conjugation yield (conjugation step): 40%

Substance: PEPTIDE1{[Fmoc].[Lys(Alloc)].L.V.F.F.K.[am]}|CHEM1{[FKBPi10-6]}$PEPTIDE1,CHEM1,7:R3-1:R2$$$V2.0
- conjugation yield (conjugation step): 13%

Substance: Fmoc-(D)Ala-MeLeu-MeLeu MeVal-MeLeu(3-OH)-Abu-(D)MeSer(OBn)-MeLeu-Val-MeLeu-Lys(2Cl-Cbz)-OBn
- step yield (coupling step, run 1): 53%
- step yield (coupling step, run 2): 33-53%

Substance: Boc-Abu-(D)MeSer(OBn)-MeLeu-Val-MeLeu-Lys(2Cl-Cbz)-OBn
- step yield (coupling step, run 1): 68%
- step yield (coupling step, run 2): 69%

Substance: Boc-(D))MeSer(OBn)-MeLeu-Val-MeLeu-Lys(2 Cl-Cbz)-OBn
- step yield (coupling step): 71%

Substance: H-MeLeu(3-OH)-Abu-Sar-MeAla-Val-McAla-Lys(2Cl-Cbz)-Obn
- step yield (late stage modification step): 84%

Substance: Acetonide-MeLeu(3-OH)-Abu-(d)MeSer(OBn)-MeLeu-Val-MeLeu-Lys(2Cl-Cbz)-OBn
- step yield (coupling step, run 1): 70%
- step yield (coupling step, run 2): 51-70%

Substance: PEPTIDE1{[ac].Q.[Lys(2Cl-Cbz)].L.V.F.F}$$$$V2.0
- outcome (conjugation step): no product isolated

Strings that start with PEPTIDE1 are HELM notation: dots part the residues, brackets hold end groups and non-standard residues.
